The list shows a part of the results.
What was measured:
Assay in all cases: log2 fold change, soluble protein after heating vs DMSO (PISA); higher = thermal stabilisation; K562 lysate, 10 uM; active = over 0.2 and 3.5 SD of the protein, either way, in both replicates (recomputed)
[1] = compound: CS(=O)(=O)CCNCc1ccc(-c2ccc3ncnc(Nc4ccc(OCc5cccc(F)c5)c(Cl)c4)c3c2)o1 [lapatinib]
Procedure, shortened: (§1)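 The values are log-two fold changes in thermal stability compared with solvent controls and come from duplicates. They were obtained by TMTpro 16plex LC-MS/MS, with channel sums equalised, on the supernatant after 21,000xg for 90 min. That supernatant came from crude K562 extract at 1 mg/mL protein treated with 10 μM compound for 30 min, heated for 3 min across 48°C-58°C, pooled and brought to 0.5% NP-40 at 4°C.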

By UniProt entry, the sequences of proteins in these tests, tags left out. Where a name states a change or a piece, a line headed by the entry shows the natural chain unless it says otherwise.
UniProt Q9P2D1: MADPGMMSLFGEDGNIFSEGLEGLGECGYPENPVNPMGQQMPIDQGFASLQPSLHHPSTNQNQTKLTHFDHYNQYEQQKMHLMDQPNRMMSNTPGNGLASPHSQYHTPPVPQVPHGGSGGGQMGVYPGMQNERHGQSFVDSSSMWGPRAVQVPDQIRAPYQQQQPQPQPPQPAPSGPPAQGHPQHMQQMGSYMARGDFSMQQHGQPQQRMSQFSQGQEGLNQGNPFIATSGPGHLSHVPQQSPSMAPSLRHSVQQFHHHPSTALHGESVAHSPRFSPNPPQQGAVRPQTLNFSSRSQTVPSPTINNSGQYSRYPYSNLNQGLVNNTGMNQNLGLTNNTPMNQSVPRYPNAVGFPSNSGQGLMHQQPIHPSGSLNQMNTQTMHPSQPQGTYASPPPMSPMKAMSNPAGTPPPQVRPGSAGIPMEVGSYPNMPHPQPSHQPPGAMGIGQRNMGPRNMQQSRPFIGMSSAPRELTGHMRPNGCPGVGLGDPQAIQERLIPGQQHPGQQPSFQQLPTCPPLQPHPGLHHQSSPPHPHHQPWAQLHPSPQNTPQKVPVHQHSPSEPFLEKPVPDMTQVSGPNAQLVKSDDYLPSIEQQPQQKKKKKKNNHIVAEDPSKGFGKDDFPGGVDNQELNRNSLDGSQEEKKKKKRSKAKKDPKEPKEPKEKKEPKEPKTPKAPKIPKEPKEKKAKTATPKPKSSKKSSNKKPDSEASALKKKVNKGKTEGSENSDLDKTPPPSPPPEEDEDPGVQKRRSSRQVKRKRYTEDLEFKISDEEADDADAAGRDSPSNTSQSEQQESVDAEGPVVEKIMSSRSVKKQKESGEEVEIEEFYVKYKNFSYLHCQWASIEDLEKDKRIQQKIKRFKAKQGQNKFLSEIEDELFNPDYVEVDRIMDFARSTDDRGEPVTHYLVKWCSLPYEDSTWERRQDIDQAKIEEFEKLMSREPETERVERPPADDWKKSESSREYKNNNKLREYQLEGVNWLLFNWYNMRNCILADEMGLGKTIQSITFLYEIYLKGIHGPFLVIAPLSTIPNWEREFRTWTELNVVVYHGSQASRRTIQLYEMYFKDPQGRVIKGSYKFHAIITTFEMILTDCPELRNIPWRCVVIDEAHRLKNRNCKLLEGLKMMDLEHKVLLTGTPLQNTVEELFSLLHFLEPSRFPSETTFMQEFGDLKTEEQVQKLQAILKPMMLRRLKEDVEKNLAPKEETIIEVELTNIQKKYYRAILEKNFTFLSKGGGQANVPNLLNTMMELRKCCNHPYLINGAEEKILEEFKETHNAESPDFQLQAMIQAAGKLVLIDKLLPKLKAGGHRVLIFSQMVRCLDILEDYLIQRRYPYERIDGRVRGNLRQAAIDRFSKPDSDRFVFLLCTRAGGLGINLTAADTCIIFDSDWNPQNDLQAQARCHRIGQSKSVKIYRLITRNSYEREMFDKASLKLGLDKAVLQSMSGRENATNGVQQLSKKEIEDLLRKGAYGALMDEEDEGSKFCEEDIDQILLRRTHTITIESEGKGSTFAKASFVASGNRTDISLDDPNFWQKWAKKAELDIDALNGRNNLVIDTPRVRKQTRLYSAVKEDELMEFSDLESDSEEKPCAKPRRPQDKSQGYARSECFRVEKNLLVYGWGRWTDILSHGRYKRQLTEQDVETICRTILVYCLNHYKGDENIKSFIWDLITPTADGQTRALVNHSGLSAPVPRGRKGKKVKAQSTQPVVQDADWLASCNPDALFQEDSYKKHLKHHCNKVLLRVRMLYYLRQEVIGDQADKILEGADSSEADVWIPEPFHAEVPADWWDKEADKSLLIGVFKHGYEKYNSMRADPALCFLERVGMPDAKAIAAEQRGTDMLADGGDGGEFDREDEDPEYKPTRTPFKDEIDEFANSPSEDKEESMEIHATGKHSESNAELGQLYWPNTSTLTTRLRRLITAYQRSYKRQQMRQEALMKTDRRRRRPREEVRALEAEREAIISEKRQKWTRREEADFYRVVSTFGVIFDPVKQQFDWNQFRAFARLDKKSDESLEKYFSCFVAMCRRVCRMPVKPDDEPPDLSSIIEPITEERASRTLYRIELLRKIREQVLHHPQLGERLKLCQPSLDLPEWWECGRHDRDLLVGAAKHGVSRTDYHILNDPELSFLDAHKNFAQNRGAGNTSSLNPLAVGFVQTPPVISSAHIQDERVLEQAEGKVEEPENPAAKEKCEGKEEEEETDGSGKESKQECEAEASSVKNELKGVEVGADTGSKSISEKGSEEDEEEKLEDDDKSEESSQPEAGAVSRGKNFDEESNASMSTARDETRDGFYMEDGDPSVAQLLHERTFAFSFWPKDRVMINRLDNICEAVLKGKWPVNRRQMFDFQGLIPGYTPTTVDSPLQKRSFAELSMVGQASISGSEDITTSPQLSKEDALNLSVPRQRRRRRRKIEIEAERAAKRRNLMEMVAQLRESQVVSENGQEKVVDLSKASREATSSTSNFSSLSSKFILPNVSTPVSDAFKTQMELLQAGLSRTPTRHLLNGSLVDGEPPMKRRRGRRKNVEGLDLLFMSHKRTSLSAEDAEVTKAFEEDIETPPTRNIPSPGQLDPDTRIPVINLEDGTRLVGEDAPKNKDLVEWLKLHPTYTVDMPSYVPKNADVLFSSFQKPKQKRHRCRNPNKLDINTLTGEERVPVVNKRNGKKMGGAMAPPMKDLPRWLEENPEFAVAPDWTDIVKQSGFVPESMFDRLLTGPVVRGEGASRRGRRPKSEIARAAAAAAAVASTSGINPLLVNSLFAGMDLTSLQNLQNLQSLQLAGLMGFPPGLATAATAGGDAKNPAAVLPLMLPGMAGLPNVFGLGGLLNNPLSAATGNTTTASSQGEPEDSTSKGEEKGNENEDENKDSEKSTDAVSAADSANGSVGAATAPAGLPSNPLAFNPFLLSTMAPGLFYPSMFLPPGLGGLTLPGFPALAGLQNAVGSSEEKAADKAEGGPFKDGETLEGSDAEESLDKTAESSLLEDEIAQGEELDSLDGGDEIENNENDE
UniProt Q9NX63: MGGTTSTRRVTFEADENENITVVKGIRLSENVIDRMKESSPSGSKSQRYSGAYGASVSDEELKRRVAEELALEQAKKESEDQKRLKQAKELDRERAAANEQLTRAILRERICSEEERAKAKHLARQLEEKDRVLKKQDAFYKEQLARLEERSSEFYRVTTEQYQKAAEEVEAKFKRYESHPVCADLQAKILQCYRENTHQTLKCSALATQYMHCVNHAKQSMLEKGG
UniProt Q9HD42: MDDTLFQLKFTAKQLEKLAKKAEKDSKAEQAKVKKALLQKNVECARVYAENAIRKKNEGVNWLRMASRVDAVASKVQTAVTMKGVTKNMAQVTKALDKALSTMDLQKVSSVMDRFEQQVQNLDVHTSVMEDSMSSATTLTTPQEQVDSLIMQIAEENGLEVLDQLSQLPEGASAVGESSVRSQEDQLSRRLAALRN
UniProt P30622: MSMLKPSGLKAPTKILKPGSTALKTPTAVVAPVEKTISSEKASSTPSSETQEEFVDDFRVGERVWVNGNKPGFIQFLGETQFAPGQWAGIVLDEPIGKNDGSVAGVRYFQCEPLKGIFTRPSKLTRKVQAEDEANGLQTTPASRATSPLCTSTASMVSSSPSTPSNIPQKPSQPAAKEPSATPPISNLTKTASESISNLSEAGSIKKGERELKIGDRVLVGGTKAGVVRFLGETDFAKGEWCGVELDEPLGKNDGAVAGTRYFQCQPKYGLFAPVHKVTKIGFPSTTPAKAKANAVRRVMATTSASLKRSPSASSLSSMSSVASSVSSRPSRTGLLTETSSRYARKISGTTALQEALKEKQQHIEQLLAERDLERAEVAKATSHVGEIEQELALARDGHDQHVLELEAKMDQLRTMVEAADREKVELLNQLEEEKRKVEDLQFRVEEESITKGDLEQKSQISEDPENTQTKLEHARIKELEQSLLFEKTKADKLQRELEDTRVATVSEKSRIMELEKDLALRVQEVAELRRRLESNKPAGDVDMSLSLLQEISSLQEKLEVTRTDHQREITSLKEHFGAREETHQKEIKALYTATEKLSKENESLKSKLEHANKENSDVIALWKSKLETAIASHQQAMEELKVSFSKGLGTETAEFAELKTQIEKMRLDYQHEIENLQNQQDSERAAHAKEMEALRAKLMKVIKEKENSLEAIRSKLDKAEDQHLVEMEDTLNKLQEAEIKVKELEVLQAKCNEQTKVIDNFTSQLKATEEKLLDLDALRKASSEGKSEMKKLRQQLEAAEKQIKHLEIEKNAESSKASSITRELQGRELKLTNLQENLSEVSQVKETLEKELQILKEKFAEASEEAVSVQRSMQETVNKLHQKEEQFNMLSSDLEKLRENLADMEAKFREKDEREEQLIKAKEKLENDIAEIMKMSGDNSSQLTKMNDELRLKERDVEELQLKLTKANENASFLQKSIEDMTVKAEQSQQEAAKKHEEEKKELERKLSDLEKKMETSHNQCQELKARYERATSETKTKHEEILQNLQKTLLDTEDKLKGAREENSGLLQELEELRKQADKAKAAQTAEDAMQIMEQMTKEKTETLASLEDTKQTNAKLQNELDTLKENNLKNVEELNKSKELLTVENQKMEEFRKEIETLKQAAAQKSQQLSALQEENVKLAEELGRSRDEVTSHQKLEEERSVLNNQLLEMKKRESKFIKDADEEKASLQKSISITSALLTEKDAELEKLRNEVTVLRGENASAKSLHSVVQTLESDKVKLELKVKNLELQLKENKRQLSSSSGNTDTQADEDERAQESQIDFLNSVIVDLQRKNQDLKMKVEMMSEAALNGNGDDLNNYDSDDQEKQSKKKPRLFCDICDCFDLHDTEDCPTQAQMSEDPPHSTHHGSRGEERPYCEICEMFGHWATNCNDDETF
UniProt Q8N0X4: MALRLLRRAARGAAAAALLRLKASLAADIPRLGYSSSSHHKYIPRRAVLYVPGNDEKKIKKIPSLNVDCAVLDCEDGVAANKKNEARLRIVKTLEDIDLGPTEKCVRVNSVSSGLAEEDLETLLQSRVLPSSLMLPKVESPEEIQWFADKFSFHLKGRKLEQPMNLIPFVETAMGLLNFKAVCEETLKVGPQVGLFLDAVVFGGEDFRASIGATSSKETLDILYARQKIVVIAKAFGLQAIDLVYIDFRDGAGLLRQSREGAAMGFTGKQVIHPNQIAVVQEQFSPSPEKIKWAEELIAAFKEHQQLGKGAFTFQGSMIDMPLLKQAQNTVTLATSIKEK
UniProt P62633: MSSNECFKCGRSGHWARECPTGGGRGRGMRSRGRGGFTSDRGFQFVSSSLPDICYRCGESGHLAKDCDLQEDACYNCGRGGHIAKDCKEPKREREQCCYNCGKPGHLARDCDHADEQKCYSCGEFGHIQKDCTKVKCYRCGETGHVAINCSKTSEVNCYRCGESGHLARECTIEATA
UniProt O14967: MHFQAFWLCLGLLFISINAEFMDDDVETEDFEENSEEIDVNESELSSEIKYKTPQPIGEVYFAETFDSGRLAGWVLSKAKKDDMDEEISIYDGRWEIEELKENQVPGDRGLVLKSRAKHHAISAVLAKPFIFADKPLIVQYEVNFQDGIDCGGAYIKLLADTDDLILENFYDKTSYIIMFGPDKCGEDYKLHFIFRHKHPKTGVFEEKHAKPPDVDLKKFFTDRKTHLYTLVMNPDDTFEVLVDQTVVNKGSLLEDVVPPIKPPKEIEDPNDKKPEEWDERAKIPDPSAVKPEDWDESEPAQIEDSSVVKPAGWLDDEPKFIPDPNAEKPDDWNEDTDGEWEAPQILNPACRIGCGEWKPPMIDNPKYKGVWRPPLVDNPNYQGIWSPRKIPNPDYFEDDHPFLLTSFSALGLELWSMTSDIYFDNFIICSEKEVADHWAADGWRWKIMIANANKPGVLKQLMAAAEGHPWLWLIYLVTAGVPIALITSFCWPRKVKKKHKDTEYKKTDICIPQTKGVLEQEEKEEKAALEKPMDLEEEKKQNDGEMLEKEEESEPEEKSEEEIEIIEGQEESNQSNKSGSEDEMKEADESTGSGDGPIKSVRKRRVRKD
UniProt Q9Y3Y2: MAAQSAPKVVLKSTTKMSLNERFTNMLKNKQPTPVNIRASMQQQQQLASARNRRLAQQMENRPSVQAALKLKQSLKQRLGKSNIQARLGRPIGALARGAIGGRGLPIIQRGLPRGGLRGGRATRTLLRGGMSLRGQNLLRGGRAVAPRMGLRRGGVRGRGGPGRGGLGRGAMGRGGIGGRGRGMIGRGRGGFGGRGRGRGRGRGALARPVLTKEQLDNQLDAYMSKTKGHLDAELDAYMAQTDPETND
UniProt P54105: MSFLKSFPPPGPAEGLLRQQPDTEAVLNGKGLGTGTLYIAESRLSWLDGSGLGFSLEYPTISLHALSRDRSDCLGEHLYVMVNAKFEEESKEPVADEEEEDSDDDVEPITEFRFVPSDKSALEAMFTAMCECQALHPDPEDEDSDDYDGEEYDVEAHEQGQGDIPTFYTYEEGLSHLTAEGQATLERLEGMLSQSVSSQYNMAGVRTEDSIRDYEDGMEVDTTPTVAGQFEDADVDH

[2] = compound: CS(=O)(=O)N1CCN(Cc2cc3nc(-c4cccc5[nH]ncc45)nc(N4CCOCC4)c3s2)CC1 [pictilisib]
Procedure, shortened: as §1

[3] = compound: C[C@@H](Oc1cc(-c2cnn(C3CCNCC3)c2)cnc1N)c1c(Cl)ccc(F)c1Cl [crizotinib]
Procedure, shortened: as §1

[4] = compound: C[C@H](C1=CC=C(C=C1)C(=O)NC2=C3C=CNC3=NC=C2)N
Procedure, shortened: as §1

[5] = compound: C[C@H](Nc1ncnc2nc[nH]c12)c1cc2cccc(Cl)c2c(=O)n1-c1ccccc1 [duvelisib]
Procedure, shortened: as §1

[6] = compound: Cc1cc(Nc2cc(CN3CCOCC3)c3nc(C)c(Cc4ccc(Cl)cc4F)n3n2)n[nH]1 [gandotinib]
Procedure, shortened: as §1

[7] = compound: Cc1cc(Nc2cc(N3CCN(C)CC3)nc(Sc3ccc(NC(=O)C4CC4)cc3)n2)n[nH]1 [tozasertib]
Procedure, shortened: as §1

[8] = compound: Cc1ccc(-n2nc(C(C)(C)C)cc2NC(=O)Nc2ccc(OCCN3CCOCC3)c3ccccc23)cc1 [doramapimod]
Procedure, shortened: as §1

[9] = compound: Cc1ccc(NC(=O)c2ccc(CN3CC[C@H](N(C)C)C3)c(C(F)(F)F)c2)cc1Nc1nccc(-c2cncnc2)n1 [bafetinib]
Procedure, shortened: as §1

[10] = compound: Cc1cccc(CC(=O)N2CCc3c2ccc(-c2cn(C)c4ncnc(N)c24)c3F)n1
Procedure, shortened: as §1

[11] = compound: Cc1cn(-c2cc(NC(=O)c3ccc(C)c(Nc4nccc(-c5cccnc5)n4)c3)cc(C(F)(F)F)c2)cn1 [nilotinib]
Procedure, shortened: as §1

[12] = compound: Cc1nc(Nc2n[nH]c3c2CN(C(=O)N[C@H](CN(C)C)c2ccccc2)C3(C)C)c2sccc2n1
Procedure, shortened: as §1

[13] = compound: Cc1nc(Nc2ncc(C(=O)Nc3c(C)cccc3Cl)s2)cc(N2CCN(CCO)CC2)n1 [dasatinib]
Procedure, shortened: as §1

[14] = compound: Cc1ncc(-c2ccnc(Nc3ccc(S(C)(=O)=O)cc3)n2)n1C(C)C
Procedure, shortened: as §1

[15] = compound: Cn1cc(-c2ccc3c(c2)CCN3C(=O)Cc2cccc(C(F)(F)F)c2)c2c(N)ncnc21
Procedure, shortened: as §1

[16] = compound: Cn1cc(CNCC2CCN(c3ncc(C(=O)NO)cn3)CC2)c2ccccc21 [quisinostat]
Procedure, shortened: as §1

[17] = compound: Cn1cncc1[C@@](N)(c1ccc(Cl)cc1)c1ccc2c(c1)c(-c1cccc(Cl)c1)cc(=O)n2C [tipifarnib]
Procedure, shortened: as §1

[18] = compound: NC(=O)Nc1cc(-c2cccc(F)c2)sc1C(=O)N[C@H]1CCCNC1
Procedure, shortened: as §1

[19] = compound: NC(=O)c1cnc(N[C@@H]2CCCC[C@@H]2N)nc1Nc1cccc(-n2nccn2)c1
Procedure, shortened: as §1

[20] = compound: NC1(c2ccc(-c3nc4ccn5c(=O)[nH]nc5c4cc3-c3ccccc3)cc2)CCC1
Procedure, shortened: as §1

Measured: log2 fold change

CHKB (UniProt Q9Y259)
inactive: [1] 0.022 | [2] -0.002 | [3] -0.056 | [4] -0.076 | [5] -0.015 | [6] 0.043 | [7] -0.041 | [8] 0.019 | [9] 0.065 | [10] 0.049 | [11] 0.018 | [12] -0.133 | [13] 0.067 | [14] 0.022 | [15] 0.01 | [16] -0.139 | [17] -0.064 | [18] 0.013 | [19] -0.012 | [20] -0.019

CHAMP1 (UniProt Q96JM3)
inactive: [1] 0.026 | [2] -0.038 | [3] 0.023 | [4] 0.023 | [5] -0.004 | [6] -0.008 | [7] -0.031 | [8] -0.012 | [9] 0.042 | [10] -0.07 | [11] -0.017 | [12] -0.017 | [13] -0.016 | [14] 0.003 | [15] -0.009 | [16] -0.028 | [17] 0 | [18] 0.014 | [19] 0.028 | [20] 0.016

CHD7 (UniProt Q9P2D1)
inactive: [1] -0.06 | [2] 0.023 | [3] -0.021 | [4] 0.069 | [5] 0.056 | [6] -0.113 | [7] 0.073 | [8] -0.029 | [9] -0.032 | [10] -0.036 | [11] 0.06 | [12] 0.016 | [13] -0.107 | [14] -0.087 | [15] 0.089 | [16] 0.013 | [17] -0.05 | [18] 0.002 | [19] -0.017 | [20] -0.02

CHCHD3 (UniProt Q9NX63)
inactive: [1] -0.014 | [2] -0.007 | [3] 0.004 | [4] 0.013 | [5] -0.032 | [6] 0.002 | [7] 0.025 | [8] -0.001 | [9] -0.001 | [10] -0.025 | [11] 0 | [12] 0 | [13] -0.009 | [14] -0.014 | [15] 0.023 | [16] 0 | [17] 0.009 | [18] -0.018 | [19] 0.01 | [20] -0.001

CHMP1A (UniProt Q9HD42)
inactive: [1] 0.027 | [2] 0.002 | [3] 0.041 | [4] 0.007 | [5] -0.027 | [6] 0.027 | [7] 0.013 | [8] 0.006 | [9] 0.01 | [10] -0.05 | [11] -0.014 | [12] 0.023 | [13] 0.031 | [14] -0.026 | [15] 0.038 | [16] 0.008 | [17] 0.021 | [18] -0.035 | [19] -0.044 | [20] -0.001

CLIP1 isoform 2 (UniProt P30622)
inactive: [1] 0.066 | [3] 0.018 | [4] -0.103 | [5] -0.053 | [6] 0.135 | [7] 0.047 | [8] 0 | [9] 0.031 | [10] 0 | [11] 0.055 | [12] -0.04 | [13] 0.049 | [14] -0.073 | [15] -0.01 | [16] -0.049 | [17] 0.015 | [18] -0.015 | [19] 0.029 | [20] -0.059

Reprinted at random: 2 records from the list
CHKB (UniProt Q9Y259)
inactive: [1] 0.022 | [2] -0.002 | [3] -0.056 | [4] -0.076 | [5] -0.015 | [6] 0.043 | [7] -0.041 | [8] 0.019 | [9] 0.065 | [10] 0.049 | [11] 0.018 | [12] -0.133 | [13] 0.067 | [14] 0.022 | [15] 0.01 | [16] -0.139 | [17] -0.064 | [18] 0.013 | [19] -0.012 | [20] -0.019

CHMP1A (UniProt Q9HD42)
inactive: [1] 0.027 | [2] 0.002 | [3] 0.041 | [4] 0.007 | [5] -0.027 | [6] 0.027 | [7] 0.013 | [8] 0.006 | [9] 0.01 | [10] -0.05 | [11] -0.014 | [12] 0.023 | [13] 0.031 | [14] -0.026 | [15] 0.038 | [16] 0.008 | [17] 0.021 | [18] -0.035 | [19] -0.044 | [20] -0.001

Carrying on:

CHIC2 (UniProt Q9UKJ5)
inactive: [1] -0.395 | [2] -0.084 | [4] -0.041 | [5] 0.056 | [6] -0.024 | [7] -0.028 | [9] -0.132 | [10] 0.05 | [11] -0.063 | [12] -0.029 | [13] -0.258 | [14] 0.073 | [15] 0.091 | [17] -0.134 | [19] 0.043 | [20] -0.067

CLYBL (UniProt Q8N0X4)
inactive: [1] 0.07 | [3] 0.199 | [4] 0.01 | [5] 0.084 | [6] 0.001 | [7] -0.164 | [8] -0.027 | [9] 0.067 | [10] 0.101 | [11] -0.16 | [12] 0.008 | [13] -0.04 | [14] 0.048 | [15] -0.167 | [16] 0.179 | [17] 0.332 | [18] -0.105 | [19] -0.027

CNBP (UniProt P62633)
inactive: [1] 0.048 | [2] -0.029 | [9] 0.005 | [19] -0.076 | [20] 0.049

CLDN12 (UniProt P56749)
inactive: [1] -0.093 | [3] -0.077 | [4] 0.033 | [5] -0.024 | [6] -0.007 | [7] -0.127 | [8] -0.047 | [9] -0.138 | [10] -0.137 | [11] -0.015 | [12] 0.034 | [13] -0.048 | [14] 0.028 | [15] 0.028 | [16] -0.001 | [17] -0.084 | [18] -0.085 | [19] -0.076 | [20] 0.054

CIAO2B (UniProt Q9Y3D0)
inactive: [1] 0.014 | [2] -0.136 | [3] -0.075 | [5] 0.004 | [7] 0.007 | [8] -0.178 | [9] -0.132 | [11] 0.028 | [12] -0.008 | [13] -0.117 | [14] 0.036 | [15] -0.017 | [16] -0.032 | [17] -0.013 | [18] 0.022 | [19] 0 | [20] 0.032

CHML (UniProt P26374)
inactive: [1] -0.006 | [2] -0.003 | [3] 0.022 | [4] -0.012 | [5] 0.006 | [6] 0.013 | [7] -0.004 | [8] -0.025 | [9] 0.094 | [10] 0.004 | [11] -0.001 | [12] 0.013 | [13] 0.035 | [14] -0.011 | [15] -0.001 | [16] 0 | [17] -0.031 | [18] -0.015 | [19] -0.008 | [20] 0.002

CLIC2 (UniProt O15247)
inactive: [1] -0.057 | [3] -0.002 | [4] -0.037 | [5] -0.039 | [6] -0.015 | [7] -0.016 | [8] -0.022 | [9] -0.009 | [10] 0.005 | [11] 0.029 | [12] -0.032 | [13] -0.017 | [14] 0.004 | [15] -0.022 | [16] -0.019 | [17] -0.024 | [18] 0.023 | [19] 0.004 | [20] -0.005

CLPB isoform 2 (UniProt Q9H078)
inactive: [1] -0.034 | [3] -0.03 | [4] 0.024 | [5] -0.015 | [6] -0.093 | [7] 0.046 | [8] -0.01 | [9] -0.072 | [10] 0.039 | [11] -0.011 | [12] -0.003 | [13] 0.076 | [14] -0.03 | [15] 0.018 | [16] 0.008 | [17] -0.004 | [18] 0.005 | [19] 0.031 | [20] -0.016

CLSPN (UniProt Q9HAW4)
inactive: [1] 0.025 | [3] -0.001 | [4] -0.023 | [5] -0.004 | [6] 0.146 | [7] -0.037 | [8] 0.115 | [9] -0.032 | [10] -0.001 | [11] 0.038 | [12] 0.029 | [13] 0.078 | [14] 0.007 | [15] -0.018 | [16] -0.043 | [17] -0.047 | [18] -0.034 | [19] -0.007 | [20] 0.017

CLGN (UniProt O14967)
inactive: [1] 0.005 | [3] -0.031 | [4] -0.088 | [5] 0.028 | [6] 0.052 | [7] 0.041 | [8] 0.006 | [9] -0.009 | [10] 0.05 | [11] 0.009 | [12] -0.066 | [13] 0.004 | [14] -0.136 | [15] 0.03 | [16] -0.058 | [17] -0.078 | [18] 0.027 | [19] -0.017 | [20] -0.051

CHTOP isoform 3 (UniProt Q9Y3Y2)
inactive: [1] 0.023 | [2] 0.002 | [3] -0.017 | [4] 0.025 | [5] -0.403 | [6] 0.014 | [7] 0.046 | [8] -0.013 | [9] -0.02 | [10] 0.03 | [13] -0.07 | [15] 0.017 | [16] -0.004 | [18] 0.029 | [19] -0.057 | [20] 0.18

CLNS1A (UniProt P54105)
inactive: [1] -0.015 | [3] 0.033 | [4] -0.017 | [5] -0.003 | [6] 0.056 | [7] -0.022 | [8] -0.038 | [9] -0.012 | [10] -0.02 | [11] 0.007 | [12] -0.021 | [13] 0.034 | [14] -0.005 | [15] 0.005 | [16] -0.029 | [17] 0.013 | [18] 0.029 | [19] -0.017 | [20] -0.017

Reference: the supplement of paper PMC10849652
